Assay results from PMC4741303.
Results are given in words; binding and its absence hold for the method and conditions named. In cells and extracts the contact can be indirect. Some entries that bind do so weakly or less than the wild type.

Sequences of proteins named here, by UniProt entry; tags and fusion partners are left off.
UniProt Q6IN02: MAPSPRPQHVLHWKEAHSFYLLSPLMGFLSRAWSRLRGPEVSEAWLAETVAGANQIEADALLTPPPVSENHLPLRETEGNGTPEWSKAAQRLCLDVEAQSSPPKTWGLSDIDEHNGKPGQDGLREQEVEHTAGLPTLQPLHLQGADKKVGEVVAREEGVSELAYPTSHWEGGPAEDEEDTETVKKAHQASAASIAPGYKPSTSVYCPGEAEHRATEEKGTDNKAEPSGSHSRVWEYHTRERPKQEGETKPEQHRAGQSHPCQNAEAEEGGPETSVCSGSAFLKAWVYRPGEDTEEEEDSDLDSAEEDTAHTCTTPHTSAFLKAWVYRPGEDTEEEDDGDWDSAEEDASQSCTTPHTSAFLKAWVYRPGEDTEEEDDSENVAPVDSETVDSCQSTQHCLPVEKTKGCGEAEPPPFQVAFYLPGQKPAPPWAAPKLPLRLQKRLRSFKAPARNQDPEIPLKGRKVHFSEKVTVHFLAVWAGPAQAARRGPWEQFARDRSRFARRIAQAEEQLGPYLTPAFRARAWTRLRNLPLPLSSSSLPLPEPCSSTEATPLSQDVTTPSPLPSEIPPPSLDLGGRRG

Molecular target: growth arrest and DNA damage‐inducible 34 (GADD34), endogenous in H9c2 cells (rat (endogenous in H9c2)) (UniProt Q6IN02)
Assay: co-IP; pooled sucrose gradient fractions 12/13 of lysates of tunicamycin-treated H9c2 cells; IP with an anti-GADD34 antibody, immunoblot; endogenous proteins

B1: NADPH oxidase‐4 (Nox4), endogenous in H9c2 cells (protein, UniProt Q924V1 1-578)
chain: MALSWRSWLANEGVKHLCLLVWLSLNVLLFWKTFLLYNQGPEYYYIHQMLGLGLCLSRASASVLNLNCSLILLPMCRTVLAYLRGSQKVPSRRTRRLLDKSKTLHITCGITICIFSGVHVAAHLVNALNFSVNYSEHFLALNAARYQNEDPRKLLFTTVPGLTGVCMVVVLFLMVTASTYAIRVSNYDIFWYTHNLFFVFYMLLLLHVSGGLLKYQTNLDTHPPGCISLNRTPSQNMSIADYVSEHFHGSLPGGFSKLEDHYQKTLVKICLEEPKFQAHFPQTWIWISGPLCLYCAERLYRCIRSNKPVTIISVINHPSDVMELRMIKENFKARPGQYIILHCPSVSALENHPFTLTMCPTETKATFGVHFKVVGDWTERFRDLLLPPSSQDSEILPFIQSRNYPKLYIDGPFGSPFEESLNYEVSLCVAGGIGVTPFASILNTLLDDWKPYKLRRLYFIWVCRDIQSFQWFADLLYVLHNKFWQENRPDFVNIQLYLSQTDGIQKIIGEKYHTLNSRLFIGRPRWKLLFDEIAKCNRGKTVGVFCCGPSSISKTLHNLSNRNNSYGTKFEYNKESFS
With B1 as the binder, how does the binding read?
The binding was “binds”.
